Article PMC7205891
No constants are given. Whether binding was seen depends on the method and setting. In cells and extracts the contact can be indirect.

Sequences of proteins named here, by UniProt entry; tags and fusion partners are left off.
UniProt Q99873: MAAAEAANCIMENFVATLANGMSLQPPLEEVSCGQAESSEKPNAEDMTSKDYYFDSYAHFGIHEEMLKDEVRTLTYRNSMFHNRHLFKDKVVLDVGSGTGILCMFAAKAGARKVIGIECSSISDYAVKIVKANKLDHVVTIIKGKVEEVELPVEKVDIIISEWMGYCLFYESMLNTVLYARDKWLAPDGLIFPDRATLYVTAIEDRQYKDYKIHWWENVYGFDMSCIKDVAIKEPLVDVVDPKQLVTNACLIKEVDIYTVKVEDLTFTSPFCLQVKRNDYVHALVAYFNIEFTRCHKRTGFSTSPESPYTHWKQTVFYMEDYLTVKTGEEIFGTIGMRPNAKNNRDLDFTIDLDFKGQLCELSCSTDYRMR

Assays:
Assay in all cases: co-IP; HEK293 cells expressing Flag-UBAP2L wild type or mutants; lysis in 0.3% CHAPS, 40 mM HEPES pH 7.4, 150 mM NaCl; IP with Flag antibody and protein G Sepharose, 4 °C; WB of endogenous proteins; no RNase A; with/without AS (500 μM, 1 h), stress recovery, PRMT1-siRNA, HA-PRMT1, Adox, UBAP2L knock-down; some lanes with EE (2 mM EDTA, 2.5 mM EGTA) or 5 mM MgCl2 in the lysis buffer
[1] = target: UBAP2L△UBA-R_(131–190)K (human) (UniProt Q14157)
[2] = target: Flag-tagged UBAP2L with all Arg residues in the RGG domain mutated to Lys (human) (UniProt Q14157)
[3] = target: Flag-tagged UBAP2L with all Arg residues in the RGG domain mutated to Ala (human) (UniProt Q14157)

Measured: binding

protein arginine methyltransferase PRMT1, endogenous (from UniProt Q99873 1-371) (enzyme)
no binding: all assays above
